One assay concerns the target T1, TurboID-cyclin F (UniProt P41002).
T1 sequence: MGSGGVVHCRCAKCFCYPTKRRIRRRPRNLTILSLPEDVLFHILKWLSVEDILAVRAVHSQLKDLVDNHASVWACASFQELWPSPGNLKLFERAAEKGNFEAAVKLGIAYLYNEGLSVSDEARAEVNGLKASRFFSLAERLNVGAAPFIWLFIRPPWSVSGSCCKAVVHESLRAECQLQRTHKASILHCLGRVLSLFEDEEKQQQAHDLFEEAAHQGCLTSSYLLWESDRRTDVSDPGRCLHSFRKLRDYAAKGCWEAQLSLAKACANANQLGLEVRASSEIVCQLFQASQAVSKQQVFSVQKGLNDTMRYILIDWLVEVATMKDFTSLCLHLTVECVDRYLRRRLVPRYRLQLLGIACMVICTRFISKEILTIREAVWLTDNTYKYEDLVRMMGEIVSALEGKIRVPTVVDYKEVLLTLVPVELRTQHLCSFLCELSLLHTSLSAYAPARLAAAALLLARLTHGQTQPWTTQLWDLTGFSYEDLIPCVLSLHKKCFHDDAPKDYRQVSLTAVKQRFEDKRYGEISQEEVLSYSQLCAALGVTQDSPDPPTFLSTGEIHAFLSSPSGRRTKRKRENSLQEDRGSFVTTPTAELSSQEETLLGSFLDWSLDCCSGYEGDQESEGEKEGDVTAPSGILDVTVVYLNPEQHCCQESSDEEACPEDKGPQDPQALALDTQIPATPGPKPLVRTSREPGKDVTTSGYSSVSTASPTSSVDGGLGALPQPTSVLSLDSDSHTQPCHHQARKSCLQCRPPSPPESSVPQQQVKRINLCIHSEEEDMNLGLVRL
As to the kind of experiment: proximity labelling.

Chains of the proteins cited; added tags and fusions are not shown.
UniProt Q9UQ84: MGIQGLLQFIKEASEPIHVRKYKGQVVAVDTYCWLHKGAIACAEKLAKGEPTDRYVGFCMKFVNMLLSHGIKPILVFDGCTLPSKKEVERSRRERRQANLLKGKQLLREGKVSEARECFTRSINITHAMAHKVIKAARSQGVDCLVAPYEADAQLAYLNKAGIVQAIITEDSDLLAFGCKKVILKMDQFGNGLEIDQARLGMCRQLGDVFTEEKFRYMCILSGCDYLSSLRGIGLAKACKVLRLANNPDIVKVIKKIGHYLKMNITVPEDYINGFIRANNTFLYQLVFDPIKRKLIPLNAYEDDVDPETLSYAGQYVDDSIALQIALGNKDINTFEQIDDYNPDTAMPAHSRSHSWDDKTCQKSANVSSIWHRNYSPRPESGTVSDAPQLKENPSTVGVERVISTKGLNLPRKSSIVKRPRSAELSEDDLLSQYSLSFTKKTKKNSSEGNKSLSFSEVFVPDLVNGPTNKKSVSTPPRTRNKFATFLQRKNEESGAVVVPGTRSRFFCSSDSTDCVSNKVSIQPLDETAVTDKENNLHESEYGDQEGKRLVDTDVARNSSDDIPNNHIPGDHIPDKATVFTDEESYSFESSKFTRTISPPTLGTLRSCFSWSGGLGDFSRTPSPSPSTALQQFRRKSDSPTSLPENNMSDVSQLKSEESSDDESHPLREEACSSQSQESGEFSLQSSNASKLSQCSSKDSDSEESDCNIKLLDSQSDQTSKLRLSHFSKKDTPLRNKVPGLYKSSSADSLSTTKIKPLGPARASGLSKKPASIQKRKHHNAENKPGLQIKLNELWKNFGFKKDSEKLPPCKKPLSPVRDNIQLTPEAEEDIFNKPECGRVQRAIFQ

A further assay has as its target GFP-EXO1 WT (UniProt Q9UQ84). As to the kind of experiment: affinity purification with mass spectrometry.

Our source for the binding values is paper doi:10.1101/2023.10.26.562393.

No constants are given. Whether binding was seen depends on the method and setting. In cells and extracts the contact can be indirect. These calls come from enrichment with a bait or labelling near it, and not all partners need be listed.

With “endogenous EXO1 (Flp-In T-REx HEK293) (from UniProt Q9UQ84 1-846)”, the binding entry in the assay with TurboID-cyclin F was “binds”.

B1: endogenous cyclin F (HEK293T) (protein, UniProt P41002 1-786)
chain: MGSGGVVHCRCAKCFCYPTKRRIRRRPRNLTILSLPEDVLFHILKWLSVEDILAVRAVHSQLKDLVDNHASVWACASFQELWPSPGNLKLFERAAEKGNFEAAVKLGIAYLYNEGLSVSDEARAEVNGLKASRFFSLAERLNVGAAPFIWLFIRPPWSVSGSCCKAVVHESLRAECQLQRTHKASILHCLGRVLSLFEDEEKQQQAHDLFEEAAHQGCLTSSYLLWESDRRTDVSDPGRCLHSFRKLRDYAAKGCWEAQLSLAKACANANQLGLEVRASSEIVCQLFQASQAVSKQQVFSVQKGLNDTMRYILIDWLVEVATMKDFTSLCLHLTVECVDRYLRRRLVPRYRLQLLGIACMVICTRFISKEILTIREAVWLTDNTYKYEDLVRMMGEIVSALEGKIRVPTVVDYKEVLLTLVPVELRTQHLCSFLCELSLLHTSLSAYAPARLAAAALLLARLTHGQTQPWTTQLWDLTGFSYEDLIPCVLSLHKKCFHDDAPKDYRQVSLTAVKQRFEDKRYGEISQEEVLSYSQLCAALGVTQDSPDPPTFLSTGEIHAFLSSPSGRRTKRKRENSLQEDRGSFVTTPTAELSSQEETLLGSFLDWSLDCCSGYEGDQESEGEKEGDVTAPSGILDVTVVYLNPEQHCCQESSDEEACPEDKGPQDPQALALDTQIPATPGPKPLVRTSREPGKDVTTSGYSSVSTASPTSSVDGGLGALPQPTSVLSLDSDSHTQPCHHQARKSCLQCRPPSPPESSVPQQQVKRINLCIHSEEEDMNLGLVRL
On to B1, for which the binding entry with GFP-EXO1 WT is recorded as “binds”.
